{"source": "PubChem BioAssay AID1053208 (Peter MacCallum Cancer Centre, 2014)", "assay": "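Find knock-downs that sensitise mouse osteosarcoma cells to doxorubicin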 (primary screen)", "cell system": "mouse osteosarcoma cells, early-passage culture from an engineered mouse model of fibroblastic bone tumour", "knock-down reagent": "siRNA pool against mouse genes, 40 nM", "timing": "about 120 h (48 h before drug, then 72 h with drug)", "treatment": "doxorubicin 100 nM for 72 h, roughly 30-40% inhibitory dose", "measurement": "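Luminescent ATP signal taken as viability with or without 100 nM doxorubicin for 72 h; mean of two wells set against non-targeting siRNA and turned into robust z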", "direction": "viability z-score with doxorubicin: higher = more viable cells under doxorubicin; viability z-score without drug: higher = more viable cells with knock-down alone", "rule for the call": "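a pool counts as active when its viability z-score with doxorubicin is -2 or below and its z-score without drug lies between -2 and 2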", "note": "Here is an unselected part of about 17,000 deposited reagents. Of all reagents, 788 (4.7%) got an active call. 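Calls rest on z-score classes alone; an extra cut-off of viability at most 70% of control was not applied to them.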 Entries without a mark were called inactive. Further read-outs or replicates are left out here. No sequences are given here."}
{"target gene":"Glt28d2","combined z-score class":"no change with or without drug","viability z-score with doxorubicin":1.35,"viability z-score without drug":1.01}
{"target gene":"Or10p21","combined z-score class":"no change with or without drug","viability z-score with doxorubicin":0,"viability z-score without drug":0.51}
{"target gene":"Mbd3","combined z-score class":"no change with or without drug","viability z-score with doxorubicin":0.45,"viability z-score without drug":0}
{"target gene":"Ift88","combined z-score class":"low cell count with and without drug","viability z-score with doxorubicin":-2.36,"viability z-score without drug":-2.19}
{"target gene":"Ndufb4","combined z-score class":"no change with or without drug","viability z-score with doxorubicin":-1.57,"viability z-score without drug":-0.84}
{"target gene":"Btbd9","combined z-score class":"no change with or without drug","viability z-score with doxorubicin":0.67,"viability z-score without drug":0.17}

Next part (2 carried over from the part before).
{"target gene":"Ndufb4","combined z-score class":"no change with or without drug","viability z-score with doxorubicin":-1.57,"viability z-score without drug":-0.84}
{"target gene":"Btbd9","combined z-score class":"no change with or without drug","viability z-score with doxorubicin":0.67,"viability z-score without drug":0.17}
{"target gene":"Ywhag","combined z-score class":"no change with or without drug","viability z-score with doxorubicin":-1.35,"viability z-score without drug":-1.01}
{"target gene":"Apc","combined z-score class":"no change with or without drug","viability z-score with doxorubicin":0.45,"viability z-score without drug":-0.84}
{"target gene":"Fam110a","combined z-score class":"no change with or without drug","viability z-score with doxorubicin":0.11,"viability z-score without drug":-0.17}
{"target gene":"Rbbp8","combined z-score class":"no change with or without drug","viability z-score with doxorubicin":-0.79,"viability z-score without drug":-0.84}
{"target gene":"Lama3","combined z-score class":"no change with or without drug","viability z-score with doxorubicin":0,"viability z-score without drug":1.69}
{"target gene":"Itih5","combined z-score class":"no change with or without drug","viability z-score with doxorubicin":-0.67,"viability z-score without drug":-0.84}
